## Percent effect of library compounds

Source: ChEMBL document CHEMBL3988442, “University of Dundee, Small-Polar-MMV Screening Library” (2021).

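Growth of Mycobacterium tuberculosis over 4 days (cholesterol / DPPC medium with tyloxapol); the read-out is not stated. Concentration: 50 µM. The record gives no direction; compounds that gave an IC50 in retests scored well above the rest, so higher reads as more growth inhibition. Of about 69,000 compounds tested this way, about 370 (0.54%) reached 50% or more in at least one test.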

Each number is a percent effect as filed. The record does not define 0% and 100%; most values in the screen are far below 50% and negative numbers occur (in some assays of this library far below -100). The compounds are a random part of those screened. Two or more numbers in one place are separate tests of the same structure; such repeats can differ widely.

structure,effect
Cc1cc(C(=O)N2CCN(Cc3ccco3)C(CCO)C2)cc(=O)[nH]1 (stereo unspecified),-24.98
O=C(NC1CC1)C(c1ccccc1)N1CCn2c(nnc2C2CC2)C1 (stereo unspecified),-4.472
CC1Oc2c(cccc2C(=O)N2CCCCCC2)NC1=O (stereo unspecified),-7.945
CC1CCC(N2CCC(NS(=O)(=O)CCCF)CC2)CC1 (stereo unspecified),-10.64
O=C(c1coc(-c2ccccc2)n1)N1CCS(=O)(=O)CC1,19.6
CN1CCC(N(CCc2ccccc2)C(=O)c2cc[nH]c2)CC1,26.71
O=C(c1ccccn1)C1CCCN(c2nccc(CCC(F)(F)F)n2)C1 (stereo unspecified),30.99
COc1ccccc1N1CCC(CNCc2cccc(C#N)c2)C1 (stereo unspecified),-28.75
CN1CCN(Cc2cn3c(n2)CN(C(=O)c2ccco2)CC3)CC1,18.48
[H][C@]12CCN(S(=O)(=O)c3ccc(C)cc3)[C@@]1([H])[C@@H](NC(=O)c1n[nH]cc1Cl)C2,1.602 & 9.198
Cc1ccc(-c2nc3cc(S(=O)(=O)N4CCCC4)ccc3n2C)o1,18.09
CN1CCC2(CC1)CN(C(=O)c1cccc3cccnc13)CCN2C,5.087
O=C(NCc1cc(F)ccc1F)Nc1ccn(CC(F)F)n1,1.58
Cc1ccn(CCC(=O)NCCc2ccco2)n1,20.45
O=S(=O)(Nc1ccc2c(c1)OCCO2)N1CCCCC1,3.003
Cc1n[nH]c(C)c1NC(=O)CN1CCCC1c1c(C)nn(C)c1C (stereo unspecified),-19.06
CCN1CCN(C(=O)C(C)SC)CC1 (stereo unspecified),9.184
CC(=O)N1CCC2(CCCN(Cc3ccc(Cl)c(C(F)(F)F)c3)C2)C1 (stereo unspecified),31.23
CN1CCN([C@@H]2CCN(Cc3ccc4cc(F)ccc4n3)C[C@H]2O)CC1,20.01 & 1.378
COc1cccc(C(C(=O)O)N(C)Cc2ccc(C)o2)c1 (stereo unspecified),16.97
CC(C)C1CCC(N2CCN(CCS(C)(=O)=O)CC2)CC1 (stereo unspecified),-8.326
Cc1ccc2cccc(S(=O)(=O)N(C)CC3CCN(C)CC3)c2n1,-0.5533
CC(O)c1cccc(N2CCC3(CCC(=O)N(CC(N)=O)C3)CC2)n1 (stereo unspecified),-5.222
[H][C@@]12CCN(C[C@@H]1C(=O)NC1CCCCC1)[C@@H](Cn1cc(CNC)nn1)C2,-0.9739
Cc1cccc(C(=O)N2CCc3c(CN(C)C)nn(C)c3C2)n1,-7.221 & 0.4058
CCCC(=O)N1CCCN(C(=O)c2oc(C)nc2C)CC1,-25.77
COc1ccccc1N1CCC(CNS(=O)(=O)c2cccs2)C1 (stereo unspecified),-1.4
COc1cccc(SCC(=O)N2CCC(N3CCCC(O)C3)CC2)c1 (stereo unspecified),-0.7261
Cc1cc(C)n(CCC(=O)N2CCCCC2c2nccs2)n1 (stereo unspecified),-14.4
CCOCCCNc1nc2c(s1)c(C)nn2C,-4.605
COc1ccccc1OC1CN(C(=O)C(c2ccc(F)cc2)N(C)C)C1 (stereo unspecified),-7.294
COCCN1CCc2ncnc(-c3ccccc3)c2CC1.O=C(O)C(F)(F)F,8.397
Cc1nc(O)cc(CCNc2nc(N(C)C)nc(C)c2C)n1,-36.98
O=C(COCc1ccccc1Cl)N1CCN(c2ncccn2)CC1,-18.14
Cc1noc(C)c1CN(C)C(=O)c1ccc(O)nc1,15.06
CS(=O)(=O)N1CCN(C(=O)CCC2CCCO2)CC1 (stereo unspecified),1.981
CNCC(=O)N1CCCC1c1cncc(Oc2ccc(F)cc2)n1.Cl (stereo unspecified),24.28
CN(C)C(=O)c1n[nH]c2c1CN(CC1CCCCC1)C2.O=C(O)C(F)(F)F.O=C(O)C(F)(F)F,-7.98
Cc1oc(C)c(C(=O)N2CCN(Cc3cscn3)CC2)c1C,-2.878
Cc1noc(C(C)C)c1C(=O)NCc1cccnc1,-0.3484
CS(=O)(=O)N1CCC(C(=O)NC(Cc2ccsc2)c2nccs2)CC1 (stereo unspecified),-0.6189
O=C(c1ccc(Cl)cc1)N1CCC(N2CCCCC2=O)CC1,-14.03
Cc1ccc(-c2nc(CNCC3CN(C)CCO3)cs2)o1 (stereo unspecified),-24.36
O=C(C1=CCCC1)N1CCC2(CC1)CC(Oc1cccnc1)CO2.O=C(O)C(F)(F)F (stereo unspecified),3.197
Cc1ccc(-c2nc(CNC3CCc4ncnn4C3)co2)cc1 (stereo unspecified),6.242
NCCC(=O)N1CCC2(CC1)CN(C(=O)c1ccc(Cl)cc1)CCO2,-4.144
O=C(O)C(F)(F)F.O=C(O)C(F)(F)F.[H][C@@]12C[C@@H](Oc3cncnc3)CN1CCN(c1ncccn1)C2,7.444
Cc1noc(-c2ccnc(N3CCC(N4CCCC4)CC3)c2)n1,-1.562
Cn1nc2c(cc1=O)CN(Cc1nc(-c3cccs3)no1)CC2,16.41
Cc1cc(C)nc(Nc2cccc(C3CCCN(C)C3)n2)n1.O=CO (stereo unspecified),7.508
CCc1noc(CN2CCN(C(=O)c3ccccc3F)CC2)n1,-34.88
O=C(O)C(F)(F)F.[H][C@]12CO[C@H](CN(C)C)[C@@]1([H])CCN(C(=O)NCc1cccc(F)c1)C2,3.008
CC(C)CNC(=O)COc1cccc[n+]1[O-],-17.88
Nc1nc2nc(C3CCCN(C(=O)c4cncs4)C3)ccc2s1 (stereo unspecified),-9.714
CN(C)C(=O)CN1C(=O)CCC12CCN(Cc1ccc(F)cc1)CC2.O=C(O)C(F)(F)F,-16.02
CSCCC(=O)NS(=O)(=O)c1ccc2c(c1)OCCO2,3.532
CC(Nc1cccc2c1OCCO2)C(=O)Nc1ccc(Cl)cc1 (stereo unspecified),3.095

6 of the entries, repeated:

* CCOCCCNc1nc2c(s1)c(C)nn2C : -4.605%
* CN1CCC2(CC1)CN(C(=O)c1cccc3cccnc13)CCN2C : 5.087%
* Cc1nc(O)cc(CCNc2nc(N(C)C)nc(C)c2C)n1 : -36.98%
* CN1CCN(Cc2cn3c(n2)CN(C(=O)c2ccco2)CC3)CC1 : 18.48%
* CCN1CCN(C(=O)C(C)SC)CC1 (stereo unspecified) : 9.184%
* O=C(c1ccccn1)C1CCCN(c2nccc(CCC(F)(F)F)n2)C1 (stereo unspecified) : 30.99%